Assay results as given in patent publication US20080193947A1 (priority 2004, published 2008).
Plain letter strings leave the end groups untold.

Experiment: peptide synthesis
Conditions: whole synthesis

Sequence	purity (crude or final not stated)
GAIIGLMVGGVVIA (listed as Homo sapiens)	80%
EDMQRQMAGLMEKMQAAV (N- and C-terminal blocking)	95%
